Patent US12707888B2, “Asymmetric donor-acceptor molecular dyes” (THE UNIVERSITY OF NORTH CAROLINA AT CHARLOTTE, priority 2019, dated 2026)

Tested on: HEK 293T cells
Assay: Cellular localization time-lapse imaging vs CellMask red
Format: cell-based, Human
Conditions: for decrease of plasma membrane fluorescence intensity normalized to CellMask red / TTz internalization (normalized intensity of intracellular membranes): 500 nM dye

With `CCCCN(CCCC)c1ccc(-c2nc3sc(-c4ccncc4)nc3s2)cc1` [Bu2N-TTz-Py, 2-(N,N-dibutyl-4-aminophenyl)-5-(4-pyridyl) thiazolo[5,4-d]thiazole] the “decrease of plasma membrane fluorescence intensity normalized to CellMask red” value (after 50 min) was 2.5%, the “decrease of plasma membrane fluorescence intensity normalized to CellMask red” value (after 110 min) was 26% and the “TTz internalization (normalized intensity of intracellular membranes)” value (over 50 min) was less than 1%. For the same compound, the “TTz internalization (normalized intensity of intracellular membranes)” value (over 130 min) was 5% and the “dye internalization (time lapsed images)” value (over 130 min, compared to CellMask Red) was “minimal dye internalization”.
